Here are results for one substance from patent US20140105903A1 (Harvard, published 2014).

The chains behind the UniProt entries cited, without tags or fusion partners. Where a name states a change or a piece, a line headed by the entry shows the natural chain unless it says otherwise.
UniProt O15031: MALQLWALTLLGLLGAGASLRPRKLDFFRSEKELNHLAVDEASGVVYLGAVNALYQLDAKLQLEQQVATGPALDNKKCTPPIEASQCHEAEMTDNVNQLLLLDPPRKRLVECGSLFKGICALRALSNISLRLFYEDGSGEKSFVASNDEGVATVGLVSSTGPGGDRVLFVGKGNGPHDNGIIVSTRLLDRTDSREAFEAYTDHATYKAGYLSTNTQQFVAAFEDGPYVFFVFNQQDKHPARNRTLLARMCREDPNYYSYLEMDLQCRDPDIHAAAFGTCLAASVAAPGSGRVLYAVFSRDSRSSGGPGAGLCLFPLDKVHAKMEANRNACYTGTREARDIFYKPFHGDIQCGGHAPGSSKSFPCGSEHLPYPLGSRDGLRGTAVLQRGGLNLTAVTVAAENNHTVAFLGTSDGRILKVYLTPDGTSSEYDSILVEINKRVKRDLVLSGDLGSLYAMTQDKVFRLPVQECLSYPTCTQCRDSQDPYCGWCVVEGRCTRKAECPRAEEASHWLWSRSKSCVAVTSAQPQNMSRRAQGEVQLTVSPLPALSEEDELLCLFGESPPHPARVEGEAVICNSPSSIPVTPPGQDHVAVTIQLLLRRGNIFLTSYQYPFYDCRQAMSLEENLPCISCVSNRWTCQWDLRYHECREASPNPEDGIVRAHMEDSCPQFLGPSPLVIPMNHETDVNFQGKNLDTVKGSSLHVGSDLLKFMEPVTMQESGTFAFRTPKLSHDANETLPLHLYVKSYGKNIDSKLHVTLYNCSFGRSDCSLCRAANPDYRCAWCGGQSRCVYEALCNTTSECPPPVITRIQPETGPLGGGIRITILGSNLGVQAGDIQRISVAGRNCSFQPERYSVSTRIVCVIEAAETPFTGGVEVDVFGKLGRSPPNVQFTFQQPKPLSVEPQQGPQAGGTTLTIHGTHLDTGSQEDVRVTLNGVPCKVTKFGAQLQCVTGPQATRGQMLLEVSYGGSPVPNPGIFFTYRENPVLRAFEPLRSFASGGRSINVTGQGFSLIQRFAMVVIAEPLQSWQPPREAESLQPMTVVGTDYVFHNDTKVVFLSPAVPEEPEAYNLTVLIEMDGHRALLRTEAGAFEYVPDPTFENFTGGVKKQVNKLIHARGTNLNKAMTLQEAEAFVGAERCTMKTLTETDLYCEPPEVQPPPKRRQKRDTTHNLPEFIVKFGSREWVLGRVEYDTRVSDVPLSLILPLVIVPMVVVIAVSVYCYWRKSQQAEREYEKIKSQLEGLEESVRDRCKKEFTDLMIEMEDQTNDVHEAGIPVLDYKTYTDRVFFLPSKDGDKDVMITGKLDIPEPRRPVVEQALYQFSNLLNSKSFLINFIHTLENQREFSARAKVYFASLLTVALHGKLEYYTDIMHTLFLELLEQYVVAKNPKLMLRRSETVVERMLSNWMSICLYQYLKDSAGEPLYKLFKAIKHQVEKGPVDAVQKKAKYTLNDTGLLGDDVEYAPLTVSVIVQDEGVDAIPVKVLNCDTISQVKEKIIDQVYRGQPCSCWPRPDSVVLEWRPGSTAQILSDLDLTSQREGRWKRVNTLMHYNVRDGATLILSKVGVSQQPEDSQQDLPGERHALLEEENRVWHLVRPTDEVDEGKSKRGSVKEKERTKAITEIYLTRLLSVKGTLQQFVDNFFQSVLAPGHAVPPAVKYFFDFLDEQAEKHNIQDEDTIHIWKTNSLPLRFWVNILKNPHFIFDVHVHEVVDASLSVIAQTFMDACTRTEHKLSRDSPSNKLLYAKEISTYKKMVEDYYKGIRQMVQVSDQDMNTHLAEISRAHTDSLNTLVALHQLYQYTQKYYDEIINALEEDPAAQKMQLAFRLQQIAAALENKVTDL
UniProt P03950: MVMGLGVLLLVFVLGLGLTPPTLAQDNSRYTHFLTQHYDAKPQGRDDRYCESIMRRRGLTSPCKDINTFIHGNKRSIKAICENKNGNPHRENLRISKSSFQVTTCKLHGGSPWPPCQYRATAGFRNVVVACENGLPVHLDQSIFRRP

These are yes or no findings as the source states them, for the method shown. Binding seen in cells or lysates may run through a third protein. Some results given as binding are weak or reduced against the parent protein; the word gives no strength.

This test has as its target human Plexin B2 (human) (UniProt O15031). The experiment in a line: co-immunoprecipitation and Western blot, ANG-Flag with solubilised LNCaP plasma membrane fraction. (In general: A western blot detects proteins with antibodies after separation by electrophoresis.)

With “Flag tagged (C-terminus) ANG (from UniProt P03950 25-147) (ligand)”, the binding result was “binds”.
